Values from PubChem BioAssay AID743458 (Peter MacCallum Cancer Centre, 2014)

Purpose: 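Identify genes whose loss lifts vorinostat resistance in colon cancer cells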 (follow-up of hits)
Cells: human HCT116-VR colon cancer cells made resistant to vorinostat
Reagent: single siRNA or pool against human genes, 25 nM per single siRNA
Time to read-out: about 72 h after transfection, including 24 h of drug
Conditions: vorinostat, 2.5 µM final, for 24 h
Measured: 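Live-cell fluorescent viability and luminescent caspase 3/7 activity after vorinostat treatment, background subtracted, mean of duplicate plates, as fold change over mock-transfected wells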
Direction: viability relative to mock: higher = more living cells than mock; caspase activity relative to mock: higher = more apoptosis than mock
Active means: 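Active means a reduced-viability or caspase-activation class, anything else inactive; classes could only be given to wells that looked healthy when left untreated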
In all, the deposit lists about 1,800 reagents; below is an unselected part. 732 of all reagents (41%) were called active. 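Calls are per siRNA reagent; a gene was deemed confirmed only if most of its four siRNAs scored.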 Unmarked entries are inactive.

The first 9 records as a preview:
no.	gene knocked down	PubChem SID	viability relative to mock	caspase activity relative to mock	viability hit class	caspase hit class
1	KIR2DL1	SID135616331	0.62 (active)	6.96	no change	caspase activation
2	KIR2DL1	SID135616332	0.97 (active)	4	no change	caspase activation
3	KIR2DL1	SID135616333	0.12 (active)	2.72	reduced viability	caspase activation
4	KIR2DL1	SID135616334	0.8	1.79	no change	no change
5	C1orf210 (chromosome 1 open reading frame 210)	SID134279681	0.37 (active)	5.34	reduced viability	caspase activation
6	C1orf210 (chromosome 1 open reading frame 210)	SID134279682	0.72 (active)	2.78	no change	caspase activation
7	C1orf210 (chromosome 1 open reading frame 210)	SID134279683	0.34 (active)	5.61	reduced viability	caspase activation
8	C1orf210 (chromosome 1 open reading frame 210)	SID134279684	1.04	0.98	no change	no change
9	PPIAL4A (peptidylprolyl isomerase A like 4A)	SID134248109	0.82	2.12	no change	no change

The list itself, repeating the preview:
no.	gene knocked down	PubChem SID	viability relative to mock	caspase activity relative to mock	viability hit class	caspase hit class
1	KIR2DL1	SID135616331	0.62 (active)	6.96	no change	caspase activation
2	KIR2DL1	SID135616332	0.97 (active)	4	no change	caspase activation
3	KIR2DL1	SID135616333	0.12 (active)	2.72	reduced viability	caspase activation
4	KIR2DL1	SID135616334	0.8	1.79	no change	no change
5	C1orf210 (chromosome 1 open reading frame 210)	SID134279681	0.37 (active)	5.34	reduced viability	caspase activation
6	C1orf210 (chromosome 1 open reading frame 210)	SID134279682	0.72 (active)	2.78	no change	caspase activation
7	C1orf210 (chromosome 1 open reading frame 210)	SID134279683	0.34 (active)	5.61	reduced viability	caspase activation
8	C1orf210 (chromosome 1 open reading frame 210)	SID134279684	1.04	0.98	no change	no change
9	PPIAL4A (peptidylprolyl isomerase A like 4A)	SID134248109	0.82	2.12	no change	no change
10	PPIAL4A (peptidylprolyl isomerase A like 4A)	SID134248110	0.84	2.26	no change	no change
11	PPIAL4A (peptidylprolyl isomerase A like 4A)	SID134248111	0.7 (active)	2.93	no change	caspase activation
12	PPIAL4A (peptidylprolyl isomerase A like 4A)	SID134248112	1.02	1.01	no change	no change
13	RNF216 (ring finger protein 216)	SID134274709	0.99	0.96	no change	no change
14	RNF216 (ring finger protein 216)	SID134274710	0.82	1.43	no change	no change
15	RNF216 (ring finger protein 216)	SID134274711	1.06 (active)	3.84	no change	caspase activation
16	RNF216 (ring finger protein 216)	SID134274712	0.92	1	no change	no change
17	BTN3A1 (butyrophilin subfamily 3 member A1)	SID134281393	0.74 (active)	2.74	no change	caspase activation
18	BTN3A1 (butyrophilin subfamily 3 member A1)	SID134281395	0.89	1.62	no change	no change
19	BTN3A1 (butyrophilin subfamily 3 member A1)	SID134281396	0.22 (active)	1.31	reduced viability	no change
20	BTN3A1 (butyrophilin subfamily 3 member A1)	SID135615768	0.92	0.84	no change	no change
21	RNF215 (ring finger protein 215)	SID152147761	0.81	2.16	no change	no change
22	RNF215 (ring finger protein 215)	SID152147794	0.88 (active)	2.79	no change	caspase activation
23	RNF215 (ring finger protein 215)	SID152149953	0.54 (active)	2.62	reduced viability	caspase activation
24	RNF215 (ring finger protein 215)	SID152151074	1.05	1.08	no change	no change
25	TRIM71 (tripartite motif containing 71)	SID152147746	0.96	1.27	no change	no change
26	TRIM71 (tripartite motif containing 71)	SID152152526	0.9	1.66	no change	no change
27	TRIM71 (tripartite motif containing 71)	SID152153864	0.72	1.47	no change	no change
28	TRIM71 (tripartite motif containing 71)	SID152155411	0.86	0.86	no change	no change
29	STS (steroid sulfatase)	SID134247057	0.92	0.86	no change	no change
30	STS (steroid sulfatase)	SID134247058	0.3 (active)	1.28	reduced viability	no change
31	STS (steroid sulfatase)	SID134247059	0.76	0.74	no change	no change
32	STS (steroid sulfatase)	SID152152685	1.02	0.9	no change	no change
33	MIIP (migration and invasion inhibitory protein)	SID134289197	0.3 (active)	4.26	reduced viability	caspase activation
34	MIIP (migration and invasion inhibitory protein)	SID134289198	0.54 (active)	4.12	reduced viability	caspase activation
35	MIIP (migration and invasion inhibitory protein)	SID134289199	0.91	1.03	no change	no change
36	MIIP (migration and invasion inhibitory protein)	SID134289200	0.83	0.9	no change	no change
37	MROH5 (maestro heat like repeat family member 5 (gene/pseudogene))	SID134307981	0.64	0.55	no change	no change
38	MROH5 (maestro heat like repeat family member 5 (gene/pseudogene))	SID134307982	0.86	1.75	no change	no change
39	MROH5 (maestro heat like repeat family member 5 (gene/pseudogene))	SID134307983	0.76 (active)	4.28	no change	caspase activation
40	MROH5 (maestro heat like repeat family member 5 (gene/pseudogene))	SID135618162	0.28 (active)	2.5	reduced viability	no change
41	TVP23C (trans-golgi network vesicle protein 23 homolog C)	SID134270851	1.02 (active)	2.95	no change	caspase activation
42	TVP23C (trans-golgi network vesicle protein 23 homolog C)	SID134270852	0.88	1.67	no change	no change
43	TVP23C (trans-golgi network vesicle protein 23 homolog C)	SID135614954	0.96	1.15	no change	no change
44	TVP23C (trans-golgi network vesicle protein 23 homolog C)	SID135614955	0.2	1.85	no change	no change
45	CCL25 (C-C motif chemokine ligand 25)	SID134240829	0.64 (active)	6.73	no change	caspase activation
46	CCL25 (C-C motif chemokine ligand 25)	SID134240830	0.96	1.84	no change	no change
47	CCL25 (C-C motif chemokine ligand 25)	SID134240831	0.66	1.15	no change	no change
48	CCL25 (C-C motif chemokine ligand 25)	SID152152740	0.26 (active)	3.89	reduced viability	caspase activation
49	CALM2 (calmodulin 2)	SID134272345	0.74	0.96	no change	no change
50	CALM2 (calmodulin 2)	SID134272346	0.9	1.72	no change	no change
51	CALM2 (calmodulin 2)	SID134272347	0.8	1.43	no change	no change
52	CALM2 (calmodulin 2)	SID134272348	0.82	2.25	no change	no change
53	VPS11 (VPS11 core subunit of CORVET and HOPS complexes)	SID134238305	0.88	1.61	no change	no change
54	VPS11 (VPS11 core subunit of CORVET and HOPS complexes)	SID134238306	0.84	1.17	no change	no change
55	VPS11 (VPS11 core subunit of CORVET and HOPS complexes)	SID134238308	0.88	2.33	no change	no change
56	VPS11 (VPS11 core subunit of CORVET and HOPS complexes)	SID152153022	0.78	1.48	no change	no change
57	CMTM1 (CKLF like MARVEL transmembrane domain containing 1)	SID134250689	0.66 (active)	3.24	no change	caspase activation
58	CMTM1 (CKLF like MARVEL transmembrane domain containing 1)	SID134250691	0.82	1.57	no change	no change
59	CMTM1 (CKLF like MARVEL transmembrane domain containing 1)	SID135613276	0.57 (active)	4	no change	caspase activation
60	CMTM1 (CKLF like MARVEL transmembrane domain containing 1)	SID135613277	0.86	1.25	no change	no change
61	RUNX2 (RUNX family transcription factor 2)	SID134257433	0.78	2.23	no change	no change
62	RUNX2 (RUNX family transcription factor 2)	SID134257434	0.96	1.25	no change	no change
63	RUNX2 (RUNX family transcription factor 2)	SID134257435	0.97	1.8	no change	no change
64	RUNX2 (RUNX family transcription factor 2)	SID134257436	0.31 (active)	3.28	reduced viability	caspase activation
65	HNRNPK (heterogeneous nuclear ribonucleoprotein K)	SID134253777	0.69	1.52	no change	no change
66	HNRNPK (heterogeneous nuclear ribonucleoprotein K)	SID134253778	0.38 (active)	2.7	reduced viability	caspase activation
67	HNRNPK (heterogeneous nuclear ribonucleoprotein K)	SID134253779	0.6	1.79	no change	no change
68	HNRNPK (heterogeneous nuclear ribonucleoprotein K)	SID134253780	0.51 (active)	2	reduced viability	no change
69	DUSP18 (dual specificity phosphatase 18)	SID134241033	0.85	2.06	no change	no change
70	DUSP18 (dual specificity phosphatase 18)	SID134241035	0.79 (active)	2.64	no change	caspase activation
71	DUSP18 (dual specificity phosphatase 18)	SID134241036	0.86	0.84	no change	no change
72	DUSP18 (dual specificity phosphatase 18)	SID135612482	0.94	1.39	no change	no change
73	EIF2S1 (eukaryotic translation initiation factor 2 subunit alpha)	SID152150441	0.89	1.02	no change	no change
74	EIF2S1 (eukaryotic translation initiation factor 2 subunit alpha)	SID152150981	0.5	2.5	no change	no change
75	EIF2S1 (eukaryotic translation initiation factor 2 subunit alpha)	SID152151103	0.37 (active)	1.54	reduced viability	no change
76	EIF2S1 (eukaryotic translation initiation factor 2 subunit alpha)	SID152152320	0.38 (active)	0.97	reduced viability	no change
